# The list shows a part of the results.
# By UniProt entry, the sequences of proteins in these tests, tags left out. Where a name states a change or a piece, a line headed by the entry shows the natural chain unless it says otherwise.
# UniProt Q9Y6K5: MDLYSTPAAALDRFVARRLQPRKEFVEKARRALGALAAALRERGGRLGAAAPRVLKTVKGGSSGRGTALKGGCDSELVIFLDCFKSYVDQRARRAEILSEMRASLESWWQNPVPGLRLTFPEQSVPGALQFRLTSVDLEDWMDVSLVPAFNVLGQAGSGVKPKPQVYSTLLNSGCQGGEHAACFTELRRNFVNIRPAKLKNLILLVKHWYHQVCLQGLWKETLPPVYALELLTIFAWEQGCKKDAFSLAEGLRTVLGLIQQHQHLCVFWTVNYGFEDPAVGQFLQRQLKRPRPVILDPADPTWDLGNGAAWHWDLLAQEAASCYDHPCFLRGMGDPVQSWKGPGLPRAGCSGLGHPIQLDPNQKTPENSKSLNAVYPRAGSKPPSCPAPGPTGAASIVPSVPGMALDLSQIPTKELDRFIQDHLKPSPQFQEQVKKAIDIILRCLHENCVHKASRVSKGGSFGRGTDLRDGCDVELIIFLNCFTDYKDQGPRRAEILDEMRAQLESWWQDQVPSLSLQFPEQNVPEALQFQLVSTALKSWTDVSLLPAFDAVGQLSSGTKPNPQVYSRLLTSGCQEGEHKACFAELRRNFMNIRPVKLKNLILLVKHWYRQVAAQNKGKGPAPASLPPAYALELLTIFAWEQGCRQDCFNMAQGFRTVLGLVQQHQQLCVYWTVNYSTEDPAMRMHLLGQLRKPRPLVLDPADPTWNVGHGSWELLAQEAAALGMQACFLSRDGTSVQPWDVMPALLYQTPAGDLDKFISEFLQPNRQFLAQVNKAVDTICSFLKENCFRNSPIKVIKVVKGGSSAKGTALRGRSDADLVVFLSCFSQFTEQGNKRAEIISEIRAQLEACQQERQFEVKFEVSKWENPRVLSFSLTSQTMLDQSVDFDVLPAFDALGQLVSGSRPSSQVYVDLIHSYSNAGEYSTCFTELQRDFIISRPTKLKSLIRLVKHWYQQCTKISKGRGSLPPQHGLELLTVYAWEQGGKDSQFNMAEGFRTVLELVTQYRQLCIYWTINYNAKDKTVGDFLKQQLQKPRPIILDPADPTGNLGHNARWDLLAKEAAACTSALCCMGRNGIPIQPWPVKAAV
# UniProt O95340: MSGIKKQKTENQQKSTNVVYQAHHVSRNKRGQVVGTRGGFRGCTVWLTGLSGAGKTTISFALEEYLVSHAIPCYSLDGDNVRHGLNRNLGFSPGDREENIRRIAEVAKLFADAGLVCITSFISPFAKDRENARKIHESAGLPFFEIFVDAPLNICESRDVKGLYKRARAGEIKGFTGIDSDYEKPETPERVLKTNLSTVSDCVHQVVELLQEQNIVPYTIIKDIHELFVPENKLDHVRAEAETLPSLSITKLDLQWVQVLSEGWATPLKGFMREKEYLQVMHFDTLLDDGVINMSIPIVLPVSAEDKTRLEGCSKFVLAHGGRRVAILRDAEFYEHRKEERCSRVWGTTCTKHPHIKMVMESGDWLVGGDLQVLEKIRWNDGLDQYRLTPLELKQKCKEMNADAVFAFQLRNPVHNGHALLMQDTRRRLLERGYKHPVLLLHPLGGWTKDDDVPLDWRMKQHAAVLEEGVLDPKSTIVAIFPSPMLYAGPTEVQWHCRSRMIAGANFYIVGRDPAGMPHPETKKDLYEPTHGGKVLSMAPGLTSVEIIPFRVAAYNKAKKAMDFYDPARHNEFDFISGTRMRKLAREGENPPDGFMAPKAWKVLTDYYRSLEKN
# UniProt P35658: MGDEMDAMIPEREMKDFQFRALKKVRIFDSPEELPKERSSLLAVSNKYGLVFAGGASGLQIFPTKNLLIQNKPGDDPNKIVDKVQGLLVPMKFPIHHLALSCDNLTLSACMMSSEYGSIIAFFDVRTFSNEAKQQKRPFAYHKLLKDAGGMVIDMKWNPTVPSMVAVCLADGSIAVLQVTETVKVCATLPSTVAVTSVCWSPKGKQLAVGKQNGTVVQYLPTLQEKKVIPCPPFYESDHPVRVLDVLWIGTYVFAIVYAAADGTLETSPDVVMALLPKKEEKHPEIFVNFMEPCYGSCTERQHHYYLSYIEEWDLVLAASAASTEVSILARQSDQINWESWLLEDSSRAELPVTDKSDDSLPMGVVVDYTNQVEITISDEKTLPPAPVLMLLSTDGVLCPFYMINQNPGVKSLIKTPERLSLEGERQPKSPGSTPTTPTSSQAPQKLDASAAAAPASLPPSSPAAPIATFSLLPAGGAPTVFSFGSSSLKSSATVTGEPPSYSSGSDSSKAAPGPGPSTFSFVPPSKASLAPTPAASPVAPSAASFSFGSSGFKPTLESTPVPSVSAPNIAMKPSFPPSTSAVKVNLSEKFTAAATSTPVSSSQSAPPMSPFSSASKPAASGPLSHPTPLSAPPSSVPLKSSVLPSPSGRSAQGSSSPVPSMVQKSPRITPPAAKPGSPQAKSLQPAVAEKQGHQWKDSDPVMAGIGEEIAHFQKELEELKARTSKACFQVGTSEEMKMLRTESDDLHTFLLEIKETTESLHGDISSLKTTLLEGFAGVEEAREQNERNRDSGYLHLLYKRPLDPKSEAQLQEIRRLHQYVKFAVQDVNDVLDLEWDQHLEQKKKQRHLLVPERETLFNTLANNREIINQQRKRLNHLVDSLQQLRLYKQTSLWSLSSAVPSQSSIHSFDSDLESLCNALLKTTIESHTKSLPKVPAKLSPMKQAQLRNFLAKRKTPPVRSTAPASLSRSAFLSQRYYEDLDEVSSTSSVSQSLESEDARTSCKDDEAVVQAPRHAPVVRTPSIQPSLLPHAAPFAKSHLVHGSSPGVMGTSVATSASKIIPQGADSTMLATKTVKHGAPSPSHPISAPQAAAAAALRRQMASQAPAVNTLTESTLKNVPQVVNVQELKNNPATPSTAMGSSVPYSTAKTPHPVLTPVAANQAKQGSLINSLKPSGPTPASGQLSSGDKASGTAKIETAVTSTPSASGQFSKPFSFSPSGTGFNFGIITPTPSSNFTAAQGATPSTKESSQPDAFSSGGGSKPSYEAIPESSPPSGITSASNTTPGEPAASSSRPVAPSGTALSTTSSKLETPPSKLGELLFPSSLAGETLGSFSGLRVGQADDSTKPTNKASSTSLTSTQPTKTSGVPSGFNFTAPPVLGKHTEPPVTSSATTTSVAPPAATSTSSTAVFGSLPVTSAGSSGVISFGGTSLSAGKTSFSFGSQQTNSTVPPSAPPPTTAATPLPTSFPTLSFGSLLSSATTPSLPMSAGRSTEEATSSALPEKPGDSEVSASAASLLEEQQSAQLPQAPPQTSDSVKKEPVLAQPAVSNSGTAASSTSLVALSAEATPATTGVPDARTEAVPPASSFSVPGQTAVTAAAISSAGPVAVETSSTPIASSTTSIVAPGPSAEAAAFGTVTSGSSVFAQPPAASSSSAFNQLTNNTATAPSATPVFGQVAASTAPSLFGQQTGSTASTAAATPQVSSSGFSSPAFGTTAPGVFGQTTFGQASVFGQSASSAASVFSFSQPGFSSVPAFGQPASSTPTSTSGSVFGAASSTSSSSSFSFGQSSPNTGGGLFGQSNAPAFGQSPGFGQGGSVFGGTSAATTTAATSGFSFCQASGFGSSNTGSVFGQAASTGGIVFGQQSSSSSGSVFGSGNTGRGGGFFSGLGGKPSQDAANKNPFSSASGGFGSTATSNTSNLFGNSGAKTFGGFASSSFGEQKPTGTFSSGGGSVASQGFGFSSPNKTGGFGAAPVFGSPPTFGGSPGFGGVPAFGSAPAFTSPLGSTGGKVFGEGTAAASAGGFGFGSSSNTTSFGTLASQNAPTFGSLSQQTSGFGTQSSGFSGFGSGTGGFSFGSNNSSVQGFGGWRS
# UniProt Q8N7B6: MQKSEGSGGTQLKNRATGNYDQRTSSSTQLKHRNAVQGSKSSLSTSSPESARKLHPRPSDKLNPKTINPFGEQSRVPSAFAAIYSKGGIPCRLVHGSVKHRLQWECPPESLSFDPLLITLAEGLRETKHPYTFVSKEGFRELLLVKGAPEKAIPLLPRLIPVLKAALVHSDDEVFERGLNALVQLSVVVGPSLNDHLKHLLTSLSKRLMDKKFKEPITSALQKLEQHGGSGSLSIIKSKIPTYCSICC
# UniProt Q13438: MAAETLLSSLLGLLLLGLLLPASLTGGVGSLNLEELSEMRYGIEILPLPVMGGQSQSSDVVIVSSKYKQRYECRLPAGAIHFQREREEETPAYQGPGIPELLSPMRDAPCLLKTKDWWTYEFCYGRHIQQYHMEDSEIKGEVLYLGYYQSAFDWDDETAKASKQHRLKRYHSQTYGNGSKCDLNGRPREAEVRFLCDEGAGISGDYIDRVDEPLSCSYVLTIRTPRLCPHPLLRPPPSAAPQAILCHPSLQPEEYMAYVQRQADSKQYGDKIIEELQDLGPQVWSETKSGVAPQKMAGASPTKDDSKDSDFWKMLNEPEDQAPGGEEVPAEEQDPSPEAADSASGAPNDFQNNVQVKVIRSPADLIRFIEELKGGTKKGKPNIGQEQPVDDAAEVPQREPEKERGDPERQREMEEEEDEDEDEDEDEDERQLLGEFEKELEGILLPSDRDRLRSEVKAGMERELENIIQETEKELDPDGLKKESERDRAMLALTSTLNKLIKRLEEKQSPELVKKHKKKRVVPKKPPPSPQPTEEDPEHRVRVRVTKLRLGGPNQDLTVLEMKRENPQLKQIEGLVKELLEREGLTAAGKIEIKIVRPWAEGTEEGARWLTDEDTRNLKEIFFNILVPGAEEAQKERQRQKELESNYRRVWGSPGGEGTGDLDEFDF
# UniProt Q8N4S7: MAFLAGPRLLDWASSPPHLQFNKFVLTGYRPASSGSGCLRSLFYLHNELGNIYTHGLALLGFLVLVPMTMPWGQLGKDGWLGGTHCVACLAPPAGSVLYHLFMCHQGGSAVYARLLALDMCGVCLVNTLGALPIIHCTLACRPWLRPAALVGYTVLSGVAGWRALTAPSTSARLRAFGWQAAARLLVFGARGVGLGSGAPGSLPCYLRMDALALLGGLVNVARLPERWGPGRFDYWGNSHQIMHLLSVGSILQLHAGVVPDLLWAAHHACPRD
# UniProt Q86U42: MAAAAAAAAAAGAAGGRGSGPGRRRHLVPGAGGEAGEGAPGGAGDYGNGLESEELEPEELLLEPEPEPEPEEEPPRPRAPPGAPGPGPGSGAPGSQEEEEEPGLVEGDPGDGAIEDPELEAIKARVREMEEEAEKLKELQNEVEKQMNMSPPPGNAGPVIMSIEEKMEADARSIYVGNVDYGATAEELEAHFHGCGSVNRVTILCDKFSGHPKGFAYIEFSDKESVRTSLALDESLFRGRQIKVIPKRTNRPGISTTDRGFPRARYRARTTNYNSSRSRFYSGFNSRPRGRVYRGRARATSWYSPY
# UniProt P47900: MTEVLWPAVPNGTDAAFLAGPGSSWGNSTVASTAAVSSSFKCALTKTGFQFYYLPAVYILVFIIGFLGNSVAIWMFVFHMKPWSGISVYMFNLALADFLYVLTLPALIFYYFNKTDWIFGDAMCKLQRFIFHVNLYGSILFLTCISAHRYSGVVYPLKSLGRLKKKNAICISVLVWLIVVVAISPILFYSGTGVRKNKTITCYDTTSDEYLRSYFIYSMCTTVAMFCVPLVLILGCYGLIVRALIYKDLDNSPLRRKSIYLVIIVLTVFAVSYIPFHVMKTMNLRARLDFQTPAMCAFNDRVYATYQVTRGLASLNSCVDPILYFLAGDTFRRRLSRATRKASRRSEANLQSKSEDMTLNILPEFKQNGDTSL
# How the values were obtained:
# Assay in all cases: log2 fold change, soluble protein after heating vs DMSO (PISA); higher = thermal stabilisation; K562 lysate, 10 uM; active = over 0.2 and 3.5 SD of the protein, either way, in both replicates (recomputed)
# vorinostat = compound: O=C(CCCCCCC(=O)Nc1ccccc1)NO [vorinostat]
# In short: (§1)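 A 30 min treatment with 10 μM compound was applied to crude K562 extract at 1 mg/mL protein in PBS pH 7.4 with 1 mM MgCl2. Heating for 3 min spanned 48°C-58°C, after which aliquots were pooled, adjusted to 0.5% NP-40 at 4°C and spun at 21,000xg for 90 min. TMTpro 16plex LC-MS/MS of the supernatant, with channel sums equalised, gave values recorded as log-two fold change in thermal stability against solvent controls, from duplicates.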
# silmitasertib = compound: O=C(O)c1ccc2c(c1)nc(Nc1cccc(Cl)c1)c1ccncc12 [silmitasertib]
# In short: as §1
# [1] = compound: O=C1NC(=O)C(c2cnc3ccccn23)=C1c1cn2c3c(cc(F)cc13)CN(C(=O)N1CCCCC1)CC2
# In short: as §1
# entospletinib = compound: c1cn2cc(-c3ccc4cn[nH]c4c3)nc(Nc3ccc(N4CCOCC4)cc3)c2n1 [entospletinib]
# In short: as §1
# [2] = compound: NCC(=O)Nc1ccc(-n2nc(C(F)(F)F)cc2-c2ccc3c(ccc4ccccc43)c2)cc1
# In short: as §1
target,measurement,setting,value
OAS3 (UniProt Q9Y6K5),log2 fold change,vorinostat,inactive: -0.396
same,log2 fold change,silmitasertib,inactive: 0.087
same,log2 fold change,[1],inactive: -0.007
same,log2 fold change,entospletinib,inactive: -0.007
PAPSS2 isoform 2 (UniProt O95340),log2 fold change,[2],inactive: 0.106
same,log2 fold change,entospletinib,inactive: -0.05
NUP214 isoform 4 (UniProt P35658),log2 fold change,vorinostat,inactive: -0.333
same,log2 fold change,silmitasertib,inactive: 0.073
PACRGL (UniProt Q8N7B6),log2 fold change,[1],inactive: -0.051
same,log2 fold change,entospletinib,inactive: 0.063
OS9 isoform 7 (UniProt Q13438),log2 fold change,vorinostat,inactive: 0.198
same,log2 fold change,silmitasertib,inactive: -0.02
OSBPL9 (UniProt E9PLH0),log2 fold change,vorinostat,inactive: -0.277
same,log2 fold change,silmitasertib,inactive: -0.106
PAQR4 (UniProt Q8N4S7),log2 fold change,vorinostat,inactive: 0.077
same,log2 fold change,silmitasertib,inactive: 0.074
PABPN1 (UniProt Q86U42),log2 fold change,[1],inactive: 0.209
same,log2 fold change,entospletinib,inactive: -0.012
P2RY1 (UniProt P47900),log2 fold change,vorinostat,inactive: 0.04
same,log2 fold change,silmitasertib,inactive: 0.13
same,log2 fold change,entospletinib,inactive: -0.064

# 2 entries drawn at random from the list so far, as already listed:
target,measurement,setting,value
PACRGL (UniProt Q8N7B6),log2 fold change,[1],inactive: -0.051
OAS3 (UniProt Q9Y6K5),log2 fold change,vorinostat,inactive: -0.396

# Reference: the supplement of paper PMC10849652
